Assay results: publication doi:10.1101/2023.07.12.548668
No constants are given. Whether binding was seen depends on the method and setting. Binding calls can cover weak binding; strength is not graded here.

Chains of the proteins cited; added tags and fusions are not shown. Lines headed by an entry give the natural chain unless they say otherwise; changes in a name come on top.
UniProt P49917: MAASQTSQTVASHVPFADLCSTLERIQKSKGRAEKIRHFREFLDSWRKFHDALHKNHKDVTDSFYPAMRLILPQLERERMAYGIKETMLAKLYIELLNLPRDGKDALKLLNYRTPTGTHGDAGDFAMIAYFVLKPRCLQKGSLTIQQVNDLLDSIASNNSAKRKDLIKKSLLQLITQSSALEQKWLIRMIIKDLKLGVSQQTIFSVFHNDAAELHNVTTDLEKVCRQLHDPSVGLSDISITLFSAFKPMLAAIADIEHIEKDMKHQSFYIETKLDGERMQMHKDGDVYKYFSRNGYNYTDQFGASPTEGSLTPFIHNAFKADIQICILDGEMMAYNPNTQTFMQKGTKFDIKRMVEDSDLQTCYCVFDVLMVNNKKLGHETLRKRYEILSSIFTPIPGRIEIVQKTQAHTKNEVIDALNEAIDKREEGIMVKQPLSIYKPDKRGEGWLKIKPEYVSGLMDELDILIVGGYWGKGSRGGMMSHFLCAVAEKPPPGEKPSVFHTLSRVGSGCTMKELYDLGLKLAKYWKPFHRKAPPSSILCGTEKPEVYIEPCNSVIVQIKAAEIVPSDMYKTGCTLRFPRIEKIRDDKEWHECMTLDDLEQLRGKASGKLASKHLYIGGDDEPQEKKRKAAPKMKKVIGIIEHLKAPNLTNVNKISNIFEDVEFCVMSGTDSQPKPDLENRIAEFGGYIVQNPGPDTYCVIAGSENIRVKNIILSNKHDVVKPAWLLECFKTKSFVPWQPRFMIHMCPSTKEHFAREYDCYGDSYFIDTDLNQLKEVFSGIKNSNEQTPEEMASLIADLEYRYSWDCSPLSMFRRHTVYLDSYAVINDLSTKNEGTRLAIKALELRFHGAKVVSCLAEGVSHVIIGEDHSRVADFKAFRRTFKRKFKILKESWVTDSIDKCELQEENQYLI
UniProt Q96SD1: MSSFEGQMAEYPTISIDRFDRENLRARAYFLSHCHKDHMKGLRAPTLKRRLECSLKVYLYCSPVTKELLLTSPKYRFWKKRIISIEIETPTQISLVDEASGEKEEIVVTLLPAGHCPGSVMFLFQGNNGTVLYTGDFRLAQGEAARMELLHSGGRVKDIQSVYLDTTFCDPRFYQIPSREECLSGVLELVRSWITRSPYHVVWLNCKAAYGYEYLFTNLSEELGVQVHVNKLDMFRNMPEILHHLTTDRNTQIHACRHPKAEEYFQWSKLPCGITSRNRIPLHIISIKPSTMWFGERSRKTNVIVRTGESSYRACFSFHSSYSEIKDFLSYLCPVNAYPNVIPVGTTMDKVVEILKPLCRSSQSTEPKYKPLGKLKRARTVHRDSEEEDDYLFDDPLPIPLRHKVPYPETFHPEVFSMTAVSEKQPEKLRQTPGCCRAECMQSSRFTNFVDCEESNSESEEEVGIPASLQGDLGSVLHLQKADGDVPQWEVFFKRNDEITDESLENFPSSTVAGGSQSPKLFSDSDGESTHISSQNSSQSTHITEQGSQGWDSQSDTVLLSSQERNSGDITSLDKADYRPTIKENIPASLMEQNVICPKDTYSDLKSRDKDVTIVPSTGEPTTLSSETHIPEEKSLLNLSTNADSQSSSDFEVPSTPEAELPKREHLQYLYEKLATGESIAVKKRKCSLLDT

Target: DNA binding domain (DBD) of LIG4 (UniProt P49917)
Assay: NMR titration; competition: 1H-15N HSQC of XRCC4CTR alone or in the presence of DBD of LIG4 and ArtCTR; peak of F333; both purified

- binding: binds
Substance: Artemis C-terminal region (ArtCTR) (from UniProt Q96SD1) (domain or fragment)
